Results: article PMC4414558
These are yes or no findings as the source states them, for the method shown. In cells and extracts the contact can be indirect. Some results given as binding are weak or reduced against the parent protein; the word gives no strength. Sequences can lack the tags named with a protein.

How the values were obtained:
[1] = target: T1, Windpipe (Wdp), untagged (Drosophila) (UniProt Q9W266); test: co-IP; S2 cells co-transfected with Arm-Gal4, pUAST-dome-HA and pUAST-wdp (with or without V5 tag) or pUAST-V5 control; lysed in RIPA buffer without SDS (50 mM Tris-HCl pH 7.8, 150 mM NaCl, 5 mM EDTA, 0.5% Triton X-100, 0.5% NP-40, 0.5% DOC); antibody 3 h at 4°C, protein G beads overnight at 4°C; western blot with anti-V5, anti-HA, anti-Wdp
T1 sequence: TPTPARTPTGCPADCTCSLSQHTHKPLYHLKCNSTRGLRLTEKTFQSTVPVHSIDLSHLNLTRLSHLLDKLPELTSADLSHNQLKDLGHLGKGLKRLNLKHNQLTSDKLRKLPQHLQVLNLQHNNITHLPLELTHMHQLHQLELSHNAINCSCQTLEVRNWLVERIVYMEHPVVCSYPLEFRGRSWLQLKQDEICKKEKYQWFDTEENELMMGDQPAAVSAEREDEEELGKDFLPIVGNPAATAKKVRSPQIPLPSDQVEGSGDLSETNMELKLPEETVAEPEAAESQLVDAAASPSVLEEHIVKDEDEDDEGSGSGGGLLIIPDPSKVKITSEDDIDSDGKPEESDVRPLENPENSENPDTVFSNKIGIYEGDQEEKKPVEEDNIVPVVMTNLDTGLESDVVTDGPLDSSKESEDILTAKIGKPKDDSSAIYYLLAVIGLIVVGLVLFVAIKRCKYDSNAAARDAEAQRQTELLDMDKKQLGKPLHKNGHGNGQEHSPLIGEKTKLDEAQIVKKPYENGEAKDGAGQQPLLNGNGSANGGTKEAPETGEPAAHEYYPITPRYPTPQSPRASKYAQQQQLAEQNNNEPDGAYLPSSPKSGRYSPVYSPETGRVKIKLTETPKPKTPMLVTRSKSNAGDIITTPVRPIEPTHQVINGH

[2] = target: T2, V5-tagged Windpipe (Wdp) (Drosophila) (UniProt Q9W266); test: as above
T2 sequence: T1 sequence

B1: HA-tagged Domeless (Dome) (receptor, UniProt Q9VWE0 24-1282)
chain: ILDPGWVIPSKVEQLIGGDFNLSCTLNEDYFNGKSAEDCPVEKLYFTGGGRVYRDSKHIRILNNTTILFSDTNAVEQENDYHCMCDEYVINKSKVYVGTRPLLVRDFNCLDYDFQFMVCNFTQPPNTVITKYNISYNTNNDWRYSNTLDCNFDSAPVVTCNLTDDNYKRFSETFYFRLSISNALGHETQPITINHFERLVPARPGQNLTLLNRTESSVCLSWEMPRRSNYNRGLVWQVRVTPQNFEPITRPSWRNHTLTIKDTLCLTELPFAGYNYTLRVRVRANQNNTLWSEPMIYAFATAPAPPRRPPRVTYGSFYVYSSEKAMRFYWEPLEEHELNGPDFRYSISEYRINGTAVDPGLIKVESNSAMIDHWSMSAVHHFLIRSSNSQGLSVNATPMTIGPISNRDFKVREPRNIRSVYHPTNKSYTLSWDPPSDQRELQNYTVFWCVPKPGLQSECEGSIRFAEVASGLHHFTTSPDQLLTLHMAVSANYQSHNTGLHWAICSSDKKDDLAKMEPSIDVATSTSLTVSWSERVCAVILAGYNLTYCQRSAGRPDNCTTVTIDRYTNKHVIQNLVPYTDYSVKMLMYSDSRVSKYSDELVNRTGEAAPSQPRELQLIRVTSDSVELAWKPPLLANGVVRAYEGTFRSLHDNVTDTFRVSASADELVNNEKPITYRLGNLTAFTKYEISVRARTVYPSEPSNVILFSTAIGVPSPPQLYVINNPDQSSRLDWEPPRTPAGRIDFYEISLRDNNASCLTSTILPGRNLSYVMATPRCTSHNPFQLAVRAINVEQHPQLNGADAAEGAVLLMSTNGKGCEARTDALGEEERLQFEAYAANMTAYRLYRSDWGIYGFICTPDTHSVKAMYQTIEVTVAILVLGVIFYLVYKKYRKMSDIGLVLPQGIMETMKKPIDMGGLGLGLGPDSSVSGGIVCTRVDDSPPYTPQDLPHDFSSCGSESSKLLLRTASSSGGGGCVDRDGYDDNHETGPISAVGPPTSYLAMRHGLLVQNDRERERERDREQEREREQQQQQRESEMDREQSCTNGYIKPTQMKSWGGNGPSDNDHTFSVPSTAMTAPMSQPLSQIPLSGYVPVPIPQSRFNPAPVQPFGSPAVPSAATAAAASTFFPPAHLLNMDNYVQASDLHKLKPLVAAPLSQTGGPAFAGSSPATSPPLQLPPVHAASPAAATPKMADIGYTTMEQLQLTGLIKPPLAATVGSPTHAAGGAPGGGNQHSRLQPQINGYVTPQDLNAMAHNRHVL
With B1 as the binder, how does the binding [1] read?
The binding was “binds”.

What about the binding [2] of the same binder?
The binding was “binds”.
